In patent US9980937B2, “Therapeutic agent for Alzheimer's disease” (NAGASAKI UNIVERSITY, priority 2014, dated 2018):
At least one compound was matched to its structure with a doubt left. Some entries repeat one wording, which the source may state once for all of them.

Test system: neprilysin
Assay: neprilysin activity staining of primary culture nerve cells
Format: cell-based
Conditions: mouse primary culture nerve cells, 48 hr; Minocycline 5 μM, Somatostatin and Harmine 1 μM, others 10 μM (FIG. 4C)
Method: This is a method of measuring the amount of neprilysin localized on the cell membrane surface by using cultured cells. Since Aβ is secreted extracellularly, the more neprilysin is present on the cell membrane, the more efficiently Aβ can be degraded and removed. The following procedure was performed according to a previous report (JP-A-2004-151079; Saito T., Iwata N., et al., Nat. Med. 11(4), 434-439, 2005).
Nerve cells prepared from mouse embryocerebral cortex and hippocampus were cultured and fixed, and reacted with a substrate. After completion of the reaction, aminopeptidase-phosphoramidon mixture and nitrosalicylaldehyde solution were sequentially added and reacted. For the cells after completion of the reaction, positively stained images were observed using a filter for argon laser and rhodamine under a confocal laser microscope. More conveniently, it is also possible to observe positively stained images by using a FITC filter under a fluorescence microscope. When the substrate is degraded by neprilysin, an insoluble fluorescence reaction product is formed, and the site where neprilysin is present is visualized in yellow (pseudocolor and could be green). When the cells are stained by this method, the copresence of thiorphan, which is a specific inhibitor of neprilysin, causes disappearance of the positively stained images, and therefore, the presence of neprilysin on the cell surface of primary culture nerve cells of mouse embryocerebral cortex and hippocampus can be confirmed.
The nerve cells prepared from mouse embryocerebral cortex and hippocampus were cultured, the following test compounds were individually added at a given concentration from day 7 to day 21 of culture, and further cultured for 48 hr. After completion of the culture, the neprilysin activity of the mouse primary culture nerve cells was visualized and observed by the method shown in the above-mentioned 1. The stained images were quantified by an image analysis software (MetaMorph, ver. 7.7 (Universal Imaging Corporation, Downington, Pa.)) and studied. […]

SMILES | neprilysin activity potentiating action (activity staining)
CCc1ccc(CCOc2ccc(CC3SC(=O)NC3=O)cc2)nc1 (stereo not drawn) [Pioglitazone] | neprilysin activity potentiating action
CN(CCOc1ccc(CC2SC(=O)NC2=O)cc1)c1ccccn1 (stereo not drawn) [Rosiglitazone] | neprilysin activity potentiating action
CN(C)c1ccc(O)c2c1C[C@H]1C[C@H]3[C@H](N(C)C)C(O)=C(C(N)=O)C(=O)[C@@]3(O)C(O)=C1C2=O [Minocycline] | neprilysin activity potentiating action
